This note sets out measurements from article PMC7862700.

Sequences of proteins named here, by UniProt entry; tags and fusion partners are left off. A change or cut given only in a name is not applied to a line headed by its entry.
UniProt P32519: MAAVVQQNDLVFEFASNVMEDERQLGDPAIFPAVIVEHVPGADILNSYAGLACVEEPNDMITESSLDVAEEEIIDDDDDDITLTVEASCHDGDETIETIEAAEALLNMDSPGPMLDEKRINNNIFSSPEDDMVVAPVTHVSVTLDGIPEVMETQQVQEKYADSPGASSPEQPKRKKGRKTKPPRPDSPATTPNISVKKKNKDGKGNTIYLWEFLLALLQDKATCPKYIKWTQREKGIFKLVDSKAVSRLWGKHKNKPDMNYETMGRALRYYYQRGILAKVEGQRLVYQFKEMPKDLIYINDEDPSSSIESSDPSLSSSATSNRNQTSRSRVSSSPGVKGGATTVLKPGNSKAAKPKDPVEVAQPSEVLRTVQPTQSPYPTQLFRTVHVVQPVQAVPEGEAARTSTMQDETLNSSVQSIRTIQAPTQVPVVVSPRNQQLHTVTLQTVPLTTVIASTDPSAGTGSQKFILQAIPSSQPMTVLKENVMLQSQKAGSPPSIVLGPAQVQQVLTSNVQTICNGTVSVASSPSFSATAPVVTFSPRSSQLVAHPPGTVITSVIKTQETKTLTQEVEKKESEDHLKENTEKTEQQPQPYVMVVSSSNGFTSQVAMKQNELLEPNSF
UniProt P50549: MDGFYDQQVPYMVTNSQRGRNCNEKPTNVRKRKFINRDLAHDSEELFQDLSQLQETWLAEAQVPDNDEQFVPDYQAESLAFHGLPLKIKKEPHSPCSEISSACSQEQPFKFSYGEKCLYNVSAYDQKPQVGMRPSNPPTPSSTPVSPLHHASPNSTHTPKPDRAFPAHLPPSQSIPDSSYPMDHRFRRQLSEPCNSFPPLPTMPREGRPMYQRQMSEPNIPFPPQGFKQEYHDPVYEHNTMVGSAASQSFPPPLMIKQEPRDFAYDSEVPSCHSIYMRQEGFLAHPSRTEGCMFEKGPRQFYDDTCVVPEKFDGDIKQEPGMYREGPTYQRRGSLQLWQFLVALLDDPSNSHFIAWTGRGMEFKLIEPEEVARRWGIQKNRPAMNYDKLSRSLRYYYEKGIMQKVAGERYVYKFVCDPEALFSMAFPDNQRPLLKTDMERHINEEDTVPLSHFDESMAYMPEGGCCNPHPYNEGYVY

Holding throughout (experiment): DAPPL (digital affinity profiling via proximity ligation, sequencing)
Common to all, as to details: 10 mM Tris-HCl pH 7.5, 50 mM NaCl, 1 mM DTT, 4% glycerol, room temperature, 30 min; GST-TFs on glutathione beads, 16-mer random dsDNA library, 0.1% …; high values mean tight binding; double strand, one strand shown; scale: fold enrichment (6-mer frequency, TF over GST control)

Test [1] addresses T1, ERG (UniProt P11308).
T1 sequence: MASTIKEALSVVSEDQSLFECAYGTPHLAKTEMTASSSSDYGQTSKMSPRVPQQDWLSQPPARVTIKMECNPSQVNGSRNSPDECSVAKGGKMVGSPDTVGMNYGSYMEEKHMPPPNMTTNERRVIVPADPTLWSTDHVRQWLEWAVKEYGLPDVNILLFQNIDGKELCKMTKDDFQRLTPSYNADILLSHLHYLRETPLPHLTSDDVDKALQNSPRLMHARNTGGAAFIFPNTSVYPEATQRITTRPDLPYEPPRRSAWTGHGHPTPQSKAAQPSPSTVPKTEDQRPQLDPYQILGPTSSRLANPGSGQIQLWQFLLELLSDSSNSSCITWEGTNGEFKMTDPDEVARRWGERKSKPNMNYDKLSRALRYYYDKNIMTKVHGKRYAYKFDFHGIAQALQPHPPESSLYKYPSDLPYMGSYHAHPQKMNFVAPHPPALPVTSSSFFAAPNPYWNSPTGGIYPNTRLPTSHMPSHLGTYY

Test [2] has as its target ELF1 (UniProt P32519).
In test [3] the target is T2, ELK4 (UniProt P28324-2).
T2 sequence: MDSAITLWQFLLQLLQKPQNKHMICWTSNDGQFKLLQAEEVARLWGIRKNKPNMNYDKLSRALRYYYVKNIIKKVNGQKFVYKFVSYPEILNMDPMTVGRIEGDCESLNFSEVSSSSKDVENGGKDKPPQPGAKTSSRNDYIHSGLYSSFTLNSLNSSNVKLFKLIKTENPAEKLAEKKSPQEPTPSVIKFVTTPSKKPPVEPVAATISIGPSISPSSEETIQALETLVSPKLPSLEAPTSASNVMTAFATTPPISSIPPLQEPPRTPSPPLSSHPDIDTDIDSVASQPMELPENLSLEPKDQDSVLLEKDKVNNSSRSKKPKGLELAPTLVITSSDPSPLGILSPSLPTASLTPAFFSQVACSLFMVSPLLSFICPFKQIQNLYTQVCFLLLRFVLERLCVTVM

Test [4] has as its target T3, ETV4 (UniProt P43268).
T3 sequence: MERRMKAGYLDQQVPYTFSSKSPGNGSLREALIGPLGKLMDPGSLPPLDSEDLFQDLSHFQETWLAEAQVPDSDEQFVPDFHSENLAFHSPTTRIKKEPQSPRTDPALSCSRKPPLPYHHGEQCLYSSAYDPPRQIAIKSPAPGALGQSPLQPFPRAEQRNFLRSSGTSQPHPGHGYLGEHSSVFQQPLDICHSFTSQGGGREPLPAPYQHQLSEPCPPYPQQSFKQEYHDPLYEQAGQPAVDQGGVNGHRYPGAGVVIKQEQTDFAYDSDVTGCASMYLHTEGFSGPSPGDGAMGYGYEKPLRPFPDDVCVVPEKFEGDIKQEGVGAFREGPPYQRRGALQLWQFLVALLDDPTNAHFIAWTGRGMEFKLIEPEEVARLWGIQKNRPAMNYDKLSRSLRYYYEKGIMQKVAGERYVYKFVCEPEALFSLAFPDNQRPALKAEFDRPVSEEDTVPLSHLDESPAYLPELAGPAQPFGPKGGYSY

The target of test [5] is ETV1 (UniProt P50549).
Test [6] addresses T4, ERF (UniProt P50548).
T4 sequence: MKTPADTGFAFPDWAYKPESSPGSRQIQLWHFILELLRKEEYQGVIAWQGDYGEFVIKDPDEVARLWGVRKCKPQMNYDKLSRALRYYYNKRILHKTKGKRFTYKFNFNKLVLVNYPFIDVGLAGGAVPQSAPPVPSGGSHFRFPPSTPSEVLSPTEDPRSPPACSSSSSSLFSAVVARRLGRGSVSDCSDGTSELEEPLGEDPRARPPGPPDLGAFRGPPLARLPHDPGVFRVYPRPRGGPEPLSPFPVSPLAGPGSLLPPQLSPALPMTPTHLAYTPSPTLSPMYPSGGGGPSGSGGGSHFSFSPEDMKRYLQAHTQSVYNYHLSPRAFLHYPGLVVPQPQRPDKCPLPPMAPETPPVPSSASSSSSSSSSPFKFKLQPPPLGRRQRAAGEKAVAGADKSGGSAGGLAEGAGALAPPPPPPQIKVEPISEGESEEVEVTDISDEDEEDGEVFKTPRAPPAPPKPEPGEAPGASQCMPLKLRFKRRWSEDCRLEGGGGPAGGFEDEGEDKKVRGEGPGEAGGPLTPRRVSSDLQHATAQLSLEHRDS

Only a part is listed here, and it is no random draw. For part of these data: At the low end of the ranking, values are background and their order means little. This is one part of the list. For part of these data: The source does not settle which construct or isoform was used.

As for CAGGTT, the binding signal in test [1] was determined as 0.662; in test [2], 0.674; in test [3], 0.685; in test [4], 0.617; in test [5] it was 0.64; in test [6], 0.66.

With TCGCCA, the binding signal in test [1] stood at 0.869; in test [2], 0.987; in test [3], 0.981; in test [4], 1.07; in test [5] it was 0.88; in test [6], 0.898.

With GCATAA, the binding signal stood at 0.857 in test [1]; 0.813 in test [2]; 0.844 in test [3]; 0.859 in test [4]; 0.848 in test [5]; 0.943 in test [6].

As to GTATAG, the binding signal worked out at 0.864 in test [1]; 0.911 in test [2]; 0.909 in test [3]; 0.877 in test [4]; 0.903 in test [5]; 0.997 in test [6].

Regarding GGGGTG, the binding signal in test [1] amounted to 0.668; in test [2], 0.696; in test [3], 0.636; in test [4] it was 0.634; in test [5], 0.584; in test [6] it was 0.749.

With TGTAGG, the binding signal in test [1] was found to be 0.818; in test [2] it was 0.798; in test [3], 0.779; in test [4], 0.799; in test [5], 0.721; in test [6], 0.848.

Consider GTAGAG, for which the binding signal was determined as 0.602 in test [1]; 0.573 in test [2]; 0.618 in test [3]; 0.607 in test [4]; 0.525 in test [5]; 0.615 in test [6].

CCCGTG: the binding signal in test [1] stood at 0.577; in test [2] it was 0.508; in test [3], 0.672; in test [4], 0.574; in test [5], 0.572; in test [6] it was 0.617.

As to TCAGGC, the binding signal in test [1] is 0.746; in test [2] it was 0.757; in test [3], 0.722; in test [4], 0.766; in test [5] it was 0.651; in test [6], 0.664.

Regarding GAGCCG, the binding signal in test [1] was determined as 0.41; in test [2] it was 0.436; in test [3], 0.372; in test [4], 0.447; in test [5], 0.403; in test [6], 0.433.

On to GAGTCC, for which the binding signal in test [1] worked out at 0.418; in test [2], 0.375; in test [3] it was 0.405; in test [4], 0.398; in test [5], 0.412; in test [6], 0.431.

Turning to GTGGGG, the binding signal in test [1] stood at 0.57; in test [2], 0.573; in test [3] it was 0.633; in test [4], 0.595; in test [5] it was 0.563; in test [6], 0.623.

Regarding TTGTCG, the binding signal is 0.779 in test [1]; 0.824 in test [2]; 0.976 in test [3]; 0.792 in test [4]; 0.924 in test [5]; 0.914 in test [6].

As to CTCGGA, the binding signal came to 0.841 in test [1]; 0.846 in test [2]; 0.807 in test [3]; 0.797 in test [4]; 0.9 in test [5]; 0.848 in test [6].

Regarding CCGGGC, the binding signal in test [1] came to 0.826; in test [2], 0.837; in test [3] it was 0.995; in test [4] it was 0.823; in test [5], 0.917; in test [6], 0.731.

In the case of TCAGTC, the binding signal stood at 0.591 in test [1]; 0.639 in test [2]; 0.624 in test [3]; 0.644 in test [4]; 0.625 in test [5]; 0.576 in test [6].

For GTCTGC, the binding signal in test [1] was 0.88; in test [2], 0.901; in test [3], 0.887; in test [4] it was 0.966; in test [5] it was 0.891; in test [6], 0.899.

Consider AGAGGT, for which the binding signal in test [1] is 0.768; in test [2], 0.9; in test [3], 0.919; in test [4], 0.816; in test [5] it was 0.855; in test [6], 0.945.

Consider CCATCG, for which the binding signal in test [1] turned out to be 0.834; in test [2], 0.844; in test [3], 0.925; in test [4], 0.837; in test [5], 0.832; in test [6], 0.96.

Take CGAGCC: the binding signal stood at 0.853 in test [1]; 0.912 in test [2]; 0.924 in test [3]; 0.905 in test [4]; 0.888 in test [5]; 0.869 in test [6].

For GCTGGA, the binding signal in test [1] was 0.792; in test [2] it was 0.845; in test [3], 0.741; in test [4], 0.841; in test [5] it was 0.812; in test [6] it was 0.825.

On to GACAGA, for which the binding signal worked out at 0.681 in test [1]; 0.66 in test [2]; 0.655 in test [3]; 0.649 in test [4]; 0.698 in test [5]; 0.676 in test [6].

Take TGGAGC: the binding signal in test [1] worked out at 0.643; in test [2], 0.642; in test [3] it was 0.654; in test [4], 0.604; in test [5], 0.702; in test [6], 0.563.

Turning to GACGGT, the binding signal in test [1] was determined as 0.435; in test [2], 0.484; in test [3] it was 0.457; in test [4] it was 0.458; in test [5] it was 0.488; in test [6] it was 0.478.

As to GGGGAG, the binding signal came to 0.436 in test [1]; 0.416 in test [2]; 0.434 in test [3]; 0.395 in test [4]; 0.424 in test [5]; 0.458 in test [6].

For the sequence GTTGTG, the binding signal in test [1] was determined as 0.913; in test [2], 0.894; in test [3], 1.07; in test [4] it was 0.921; in test [5] it was 0.77; in test [6] it was 0.814.

With TGACAG, the binding signal in test [1] stood at 0.953; in test [2], 0.948; in test [3], 0.968; in test [4], 0.995; in test [5], 0.948; in test [6], 0.971.

Take GGTGGA: the binding signal was 0.587 in test [1]; 0.593 in test [2]; 0.554 in test [3]; 0.614 in test [4]; 0.59 in test [5]; 0.581 in test [6].

Turning to GGGGAT, the binding signal in test [1] came out at 0.672; in test [2], 0.675; in test [3] it was 0.66; in test [4], 0.67; in test [5] it was 0.71; in test [6] it was 0.675.

With GGGGTC, the binding signal in test [1] came out at 0.633; in test [2] it was 0.661; in test [3] it was 0.587; in test [4], 0.625; in test [5], 0.701; in test [6], 0.663.
